From article PMC6602471

Target: T1, ETS1 (Homo sapiens) (UniProt P14921)
T1 sequence (P14921 whole entry, looked up): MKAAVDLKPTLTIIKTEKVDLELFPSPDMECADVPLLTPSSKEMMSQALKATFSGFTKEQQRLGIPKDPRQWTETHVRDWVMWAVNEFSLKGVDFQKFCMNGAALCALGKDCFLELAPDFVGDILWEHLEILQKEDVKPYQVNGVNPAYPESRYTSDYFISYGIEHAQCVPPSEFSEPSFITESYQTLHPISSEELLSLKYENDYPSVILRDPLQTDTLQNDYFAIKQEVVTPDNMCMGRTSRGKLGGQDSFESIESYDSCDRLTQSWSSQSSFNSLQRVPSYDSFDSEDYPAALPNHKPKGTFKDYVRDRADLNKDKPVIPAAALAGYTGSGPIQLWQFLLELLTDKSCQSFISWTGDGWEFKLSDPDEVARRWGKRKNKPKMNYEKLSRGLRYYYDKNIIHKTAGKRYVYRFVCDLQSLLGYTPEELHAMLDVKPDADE
Assay: PBM
Conditions: Custom protein-binding microarray; recombinant protein

Row | Sequence | binding signal [log signal]
1 | CACAATTTTTACAGTAATGTAGCACGCGTAACTCCTGTCTTGATTCGCTTGACGCTGCTG (double strand) [seq11_wt0] | 8.15
2 | CAGCATAGGACTTCTTCCCTGAAGCAATTGATAACCGTCTTGATTCGCTTGACGCTGCTG (double strand) [seq06_wt0] | 8.39
3 | CTGGGACTTGACCCAACTCTGCCACGTGGGTCGTTTGTCTTGATTCGCTTGACGCTGCTG (double strand) [seq07_wt0] | 8.2
4 | GATTAATTTCTGCCCTTATTCGCACGTGCCATAACAGTCTTGATTCGCTTGACGCTGCTG (double strand) [seq08_wt0] | 8.22
5 | GTGTATAGGATCCCATCCAACACACGTGTTAAAATGGTCTTGATTCGCTTGACGCTGCTG (double strand) [seq10_wt0] | 8.35
6 | TAAAGGGAAGACGGTTGTGGTAGTTCCGGGTATTAAGTCTTGATTCGCTTGACGCTGCTG (double strand) [seq03_wt0] | 8.52
7 | TACTGACTTATATATGCGAATGCACATGAATAGACCGTCTTGATTCGCTTGACGCTGCTG (double strand) [seq12_wt0] | 8.15
8 | TCCGGCTACCAGCTCCACCCACTTCAGGCCTTGTAGGTCTTGATTCGCTTGACGCTGCTG (double strand) [seq05_wt0] | 8.36
9 | TGTCGGGTAAGGGAATGTAGATCACGTGAATGAAAAGTCTTGATTCGCTTGACGCTGCTG (double strand) [seq09_wt0] | 8.22

Construct, isoform or probe ends are uncertain for at least one entry. The direction of at least one scale is not stated here.
